Source: PubChem BioAssay AID2551 (National Center for Advancing Translational Sciences (NCATS), 2010)
Hit rate of the full screen: of about 310,000 compounds, about 17,000 (5.5%) were called active. The inconclusive results got no clear call from the source; some entries with a clear call stand among them for comparison. Calls come from the whole dose curve; as a rule, active = well fitted inhibition curve with a large enough effect; inconclusive = small, poorly fitted or top-dose-only effect, or effect the other way; inactive = no such curve, though single readings can be large or run the other way. Potencies of inconclusive entries are doubtful fits and often do not repeat.

Chains of the proteins cited; added tags and fusions are not shown. Lines headed by an entry give the natural chain unless they say otherwise; changes in a name come on top.
UniProt P51450: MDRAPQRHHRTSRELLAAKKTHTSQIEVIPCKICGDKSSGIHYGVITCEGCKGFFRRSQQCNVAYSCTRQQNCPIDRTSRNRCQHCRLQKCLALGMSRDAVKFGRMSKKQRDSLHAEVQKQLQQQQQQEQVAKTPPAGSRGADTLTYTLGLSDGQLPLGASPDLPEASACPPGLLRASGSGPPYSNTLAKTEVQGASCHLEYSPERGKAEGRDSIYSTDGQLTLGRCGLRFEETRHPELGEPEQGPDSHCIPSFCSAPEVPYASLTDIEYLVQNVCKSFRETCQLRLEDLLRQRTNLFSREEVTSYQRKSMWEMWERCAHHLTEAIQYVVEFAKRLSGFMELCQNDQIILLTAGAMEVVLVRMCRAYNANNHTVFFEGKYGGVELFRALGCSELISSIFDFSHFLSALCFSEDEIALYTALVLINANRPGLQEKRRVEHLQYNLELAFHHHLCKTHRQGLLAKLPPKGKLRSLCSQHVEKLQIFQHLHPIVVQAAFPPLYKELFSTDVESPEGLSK

Biological target: Nuclear receptor ROR-gamma (Mus musculus) (UniProt P51450)
Experiment: qHTS for inhibitors of ROR gamma transcriptional activity; note: nearly all actives have a fitted effect of over 60% in size
Conditions: Drosophila S2 Gal4-RORgamma UAS-luciferase reporter, 20 h; activity change, negative = inhibition: at 53.6 µM (top of the series)
Summary of the method: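 ROR gamma transcriptional activity was tracked as Gal4-UAS luciferase output in stably transfected Drosophila Schneider cells, with compound added 1 hr before 700 uM copper sulfate induction and a 20 hr ambient-temperature incubation.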
% is set by controls: 0 for no effect and ±100 for the full control effect; potency is the fitted concentration of half-maximal effect.

Row | SMILES | Potency | activity change, negative = inhibition
1 | Cc1cc(C)c(C)c(S(=O)(=O)NCc2ccc(C(=O)N3CCOCC3)cc2)c1C | inconclusive: 31.6 µM [activator, single point] | –
2 | O=c1c(Cl)c(N/N=C/c2ccc(Br)cc2)cnn1-c1ccccc1 | inconclusive: 20 µM [activator, single point] | –
3 | CN(C)c1oc(-c2ccccc2Cl)nc1P(=O)(c1ccccc1)c1ccccc1 | – | inactive: -30.6%
4 | CCO[C@@H]1OC(C(=O)NCc2ccccc2)=C[C@H](C)[C@H]1CCCO | inconclusive: 3.16 µM [activator, partial curve, poor fit] | –
5 | CC(C)(C)C1CCc2c(sc(NC(=O)CSc3nnc(-c4ccccc4)o3)c2C#N)C1 (stereo unspecified) | inconclusive: 5.01 µM [inhibitor, partial curve] | –
6 | CCNC(=O)CC1SC(=Nc2cccc3ccccc23)N(C)C1=O (stereo unspecified) | inconclusive: 6.31 µM [activator, partial curve] | –
7 | CC(=O)Nc1cccc(-c2csc(NCc3ccco3)n2)c1 | inconclusive: 7.94 µM [activator, partial curve] | –
8 | COC(=O)C1=C(C)N(Cc2ccccc2)C(=NCC(C)C)N[C@H]1c1ccc(Br)cc1 | active: 1.78 µM | –
9 | Cc1cs/c(=N\N=C2CCCCC2)n1Cc1ccco1 | inconclusive: 39.8 µM [inhibitor, partial curve] | –
10 | Cc1cccc(NC(=O)c2ccc(NS(=O)(=O)c3c(C)noc3C)cc2)c1 | inconclusive: 11.2 µM [activator, partial curve] | –
11 | S=c1[nH]c(-c2ccccc2)cn1/N=C/c1ccccc1Br | active: 1 µM | –
12 | Cc1c(CN2CCC(Oc3ccc(C(=O)N4CCCCC4)cc3)CC2)cnn1C | – | inactive: 8.9%
13 | COc1ccc(C2=Nn3c([n+](C)c4ccccc43)SC2)cc1 | inconclusive: 2.82 µM [inhibitor, single point] | –
14 | C=C1CCc2c([nH]c3ccc(OCC(C)C)cc23)C1=O | active: 14.1 µM | –
15 | O=C(NC(=S)NNC(=O)c1ccccc1F)c1cccnc1 | active: 11.2 µM | –
16 | C=CCNc1nc(Cl)nc(NC2CCCCC2)n1 | inconclusive: 7.94 µM [activator, partial curve, poor fit] | –
17 | Cc1ccc(-c2nnc(-c3ccccc3Br)o2)cc1 | active: 12.6 µM | –
18 | O=C(Nc1ccc(O)cc1)c1ccc(C(=O)c2ccccc2)o1 | inconclusive: 1.78 µM [inhibitor, full curve, poor fit] | –
19 | CCC(=O)Nc1ccc2nc(C)n(Cc3ccccc3Cl)c(=O)c2c1 | inconclusive: 35.5 µM [activator, single point] | –
20 | N#Cc1c(NC(=O)c2ccc([N+](=O)[O-])o2)sc2c1CCC2 | inconclusive: 35.5 µM [inhibitor, single point] | –
21 | CC(C)NC(=O)c1cc2c(s1)CCCC2 | inconclusive: 35.5 µM [activator, single point] | –
22 | O=C(NCCCN1CCCCC1)c1ccc2c(c1)NC(=O)C(N1CCCCC1)S2 (stereo unspecified) | – | inactive: 10.4%
23 | COC(=O)c1c(CSc2ccc(Cl)cc2)noc1C(=O)NCc1ccco1 | inconclusive: 10 µM [activator, partial curve] | –

By substructure, the entries above containing an NH in an aromatic ring
Row | SMILES | Potency | activity change, negative = inhibition
11 | S=c1[nH]c(-c2ccccc2)cn1/N=C/c1ccccc1Br | active: 1 µM | –
14 | C=C1CCc2c([nH]c3ccc(OCC(C)C)cc23)C1=O | active: 14.1 µM | –

Next part:

Row | SMILES | Potency | activity change, negative = inhibition
24 | Cc1ccc2c(c1)nnn2C1CCN(S(=O)(=O)c2ccc(C(=O)N3C(C)CCCC3C)cc2)CC1 (stereo unspecified) | inconclusive: 2.51 µM [activator, partial curve, poor fit] | –
25 | CC1CCN(c2ncnc3nc[nH]c23)CC1 | inconclusive: 3.16 µM [activator, full curve] | –
26 | CCOc1ccc2nc(NC(=O)Cn3[nH]c(=O)c4ccccc4c3=O)sc2c1 | inconclusive: 12.6 µM [inhibitor, single point] | –
27 | NC(=S)Nc1ccc(Oc2ccc(NC(N)=S)cc2)cc1 | – | inactive: 10.4%
28 | CC1CCCC(C)N1C(=O)CSc1ncccn1 (stereo unspecified) | – | inactive: -22.3%
29 | O=C(c1ccc2c(=O)n(Cc3ccccc3Cl)c(=S)[nH]c2c1)N1CCCC1 | active: 11.2 µM | –
30 | O=C(Cc1csc(Nc2nc(=S)[nH]c3ccccc23)n1)NCCCN1CCN(c2ccccc2F)CC1 | active: 2 µM | –
31 | N#CC1=C(N)C(C#N)(C#N)[C@H](c2ccncc2)[C@H]2CC3(CC=C12)OCCO3 | inconclusive: 5.62 µM [inhibitor, single point] | –
32 | CCN(CC)S(=O)(=O)c1ccc(NC(=O)COC(=O)CCc2cc(OC)c(OC)c(OC)c2)cc1 | inconclusive: 35.5 µM [activator, single point] | –
33 | CCc1nnc(NC(=O)c2sc3nc4c(cc3c2N)CCCCC4)s1 | inconclusive: 15.8 µM [inhibitor, single point] | –
34 | Cc1cccc(Cn2c(Cc3ccccc3)nc3ccccc32)c1 | active: 3.16 µM | –
35 | Cc1c(C(=O)OC(C)C)sc(NC(=O)c2cccnc2)c1C#N | inconclusive: 12.6 µM [activator, partial curve] | –
36 | COc1ccc(-c2nn(-c3ccccc3)cc2/C=C/C(=O)OCC(=O)Nc2ccccc2C#N)cc1 | – | inactive: 18.9%
37 | O=C1CCCc2nc(N3CCc4ccccc43)ncc21 | inconclusive: 7.08 µM [inhibitor, partial curve] | –
38 | COc1ccc(/C=N/N2CCOCC2)cc1COc1ccc(Cl)cc1 | inconclusive: 20 µM [activator, single point] | –
39 | COc1cccc(CN(C)C(=S)Nc2ccc(C)c(C)c2)c1 | active: 11.2 µM | –
40 | Cc1cc(C)c(C)c(/C=C(/C#N)C(N)=S)c1C | active: 6.31 µM | –
41 | CC(C)(C)c1ccc(S(=O)(=O)N2CCC(CO)(CC3CCCCO3)CC2)cc1 (stereo unspecified) | inconclusive: 31.6 µM [activator, single point] | –
42 | O=C(N/N=C/c1ccccc1OCc1ccccc1)c1cccs1 | inconclusive: 15.8 µM [inhibitor, single point] | –
43 | COCCCN1CC23C=CC(O2)C(C(=O)O)C3C1=O (stereo unspecified) | inconclusive: 35.5 µM [activator, single point] | –
44 | CCc1nnc(NC(=O)CSc2nnc(-c3ccco3)o2)s1 | active: 11.2 µM | –
45 | CC(C)Cn1c(-c2ccco2)csc1=Nc1cccnc1 | – | inactive: -42.1%
46 | O=C(O)c1cccc(N2C(=O)c3ccc4c5c(ccc(c35)C2=O)C(=O)N(c2cccc(C(=O)O)c2)C4=O)c1 | – | inactive: -3.22%
